Source: paper PMC8934624
No constants are given. Whether binding was seen depends on the method and setting. In cells and extracts the contact can be indirect. Some binding calls cover weakened binding; strength is not graded here.

Sequences of proteins named here, by UniProt entry; tags and fusion partners are left off. A change or cut given only in a name is not applied to a line headed by its entry. A line that says so, or that is headed by a name, gives the form on record, which may keep a tag or linker.
FLAG-tagged wild-type hnRNP D40 (full-length) (Q14103, form named): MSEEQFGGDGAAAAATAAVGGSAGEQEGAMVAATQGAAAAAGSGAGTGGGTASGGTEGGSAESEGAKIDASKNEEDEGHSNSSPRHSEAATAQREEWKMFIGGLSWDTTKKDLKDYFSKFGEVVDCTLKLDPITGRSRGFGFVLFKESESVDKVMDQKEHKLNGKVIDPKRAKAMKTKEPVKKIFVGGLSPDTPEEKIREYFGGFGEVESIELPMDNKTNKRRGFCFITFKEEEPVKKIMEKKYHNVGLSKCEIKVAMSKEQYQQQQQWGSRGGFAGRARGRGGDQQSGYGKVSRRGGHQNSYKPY
UniProt P08621: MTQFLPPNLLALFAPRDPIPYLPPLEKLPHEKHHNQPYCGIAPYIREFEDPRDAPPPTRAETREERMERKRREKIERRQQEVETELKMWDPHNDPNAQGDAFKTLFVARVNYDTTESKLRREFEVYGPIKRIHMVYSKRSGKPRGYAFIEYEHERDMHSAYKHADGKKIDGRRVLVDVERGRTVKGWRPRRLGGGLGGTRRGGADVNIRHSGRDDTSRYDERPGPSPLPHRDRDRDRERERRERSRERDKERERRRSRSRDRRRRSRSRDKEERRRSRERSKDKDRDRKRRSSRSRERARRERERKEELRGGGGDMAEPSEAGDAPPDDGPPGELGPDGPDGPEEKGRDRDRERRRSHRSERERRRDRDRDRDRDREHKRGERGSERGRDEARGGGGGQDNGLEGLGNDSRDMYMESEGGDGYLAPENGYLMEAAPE
UniProt P11940: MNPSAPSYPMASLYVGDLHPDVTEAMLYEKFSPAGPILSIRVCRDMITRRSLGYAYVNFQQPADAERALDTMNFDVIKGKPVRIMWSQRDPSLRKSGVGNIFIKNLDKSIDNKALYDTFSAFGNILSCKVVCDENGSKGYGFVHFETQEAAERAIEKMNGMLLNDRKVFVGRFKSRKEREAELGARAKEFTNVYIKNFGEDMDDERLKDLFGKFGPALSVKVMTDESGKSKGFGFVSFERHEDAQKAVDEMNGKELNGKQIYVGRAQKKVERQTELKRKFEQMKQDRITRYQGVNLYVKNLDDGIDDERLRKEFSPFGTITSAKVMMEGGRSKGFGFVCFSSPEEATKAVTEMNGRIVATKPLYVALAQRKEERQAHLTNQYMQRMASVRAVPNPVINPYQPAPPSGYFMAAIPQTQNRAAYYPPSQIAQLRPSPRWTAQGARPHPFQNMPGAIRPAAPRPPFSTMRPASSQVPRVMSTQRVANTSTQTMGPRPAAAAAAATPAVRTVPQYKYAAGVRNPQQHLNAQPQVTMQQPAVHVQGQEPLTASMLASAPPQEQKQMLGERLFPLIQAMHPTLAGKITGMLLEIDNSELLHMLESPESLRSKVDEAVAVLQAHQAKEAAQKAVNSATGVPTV

B1: U2 auxiliary factor U2AF35 (protein, UniProt Q01081 1-240)
chain: MAEYLASIFGTEKDKVNCSFYFKIGACRHGDRCSRLHNKPTFSQTIALLNIYRNPQNSSQSADGLRCAVSDVEMQEHYDEFFEEVFTEMEEKYGEVEEMNVCDNLGDHLVGNVYVKFRREEDAEKAVIDLNNRWFNGQPIHAELSPVTDFREACCRQYEMGECTRGGFCNFMHLKPISRELRRELYGRRRKKHRSRSRSRERRSRSRDRGRGGGGGGGGGGGGRERDRRRSRDRERSGRF

target: FLAG-tagged wild-type hnRNP D40 (full-length) (UniProt Q14103); assay: co-IP; lysates of transfected HeLa cells (25 mM Tris HCl pH 7.4, 150 mM NaCl, 1% NP-40, 1 mM EDTA, 1 mM DTT, RNase inhibitor, 5% glycerol); anti-flag antibody (M2) or IgG on Dynabeads protein G, 4°C overnight; six washes; western blot of endogenous partners

binding, binds:
U1 snRNP component U1-70K (from UniProt P08621 1-437)
cytosolic poly(A)-binding protein-1 (PABP-C1) (from UniProt P11940 1-636)
B1
